These are yes or no findings as the source states them, for the method shown. Some binding calls cover weakened binding; strength is not graded here.

The chains behind the UniProt entries cited, without tags or fusion partners. Where a name states a change or a piece, a line headed by the entry shows the natural chain unless it says otherwise. A line that says so, or that is headed by a name, gives the form on record, which may keep a tag or linker.
SlMADS-RIN (Q8S4L4, form named): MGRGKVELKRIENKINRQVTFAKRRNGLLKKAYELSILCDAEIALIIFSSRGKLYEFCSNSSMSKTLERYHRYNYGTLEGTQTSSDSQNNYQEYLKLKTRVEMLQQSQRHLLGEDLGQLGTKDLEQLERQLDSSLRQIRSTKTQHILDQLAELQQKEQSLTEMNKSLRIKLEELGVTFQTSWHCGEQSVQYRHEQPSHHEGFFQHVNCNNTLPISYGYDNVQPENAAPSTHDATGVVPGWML
UniProt Q7Y040: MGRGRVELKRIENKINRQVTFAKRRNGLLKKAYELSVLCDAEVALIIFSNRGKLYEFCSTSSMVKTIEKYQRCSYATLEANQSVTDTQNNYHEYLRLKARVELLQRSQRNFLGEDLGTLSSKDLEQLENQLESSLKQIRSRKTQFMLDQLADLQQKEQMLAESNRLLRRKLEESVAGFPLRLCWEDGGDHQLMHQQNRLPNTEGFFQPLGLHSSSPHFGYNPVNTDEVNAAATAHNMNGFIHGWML
UniProt K4BND8: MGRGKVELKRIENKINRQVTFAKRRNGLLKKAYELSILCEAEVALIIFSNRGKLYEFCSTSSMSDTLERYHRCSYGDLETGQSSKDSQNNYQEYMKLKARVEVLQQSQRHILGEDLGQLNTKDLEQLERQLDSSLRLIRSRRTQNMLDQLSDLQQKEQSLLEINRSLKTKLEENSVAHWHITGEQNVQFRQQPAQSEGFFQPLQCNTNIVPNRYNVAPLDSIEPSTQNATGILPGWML

Data on one substance can be found in PMC5821886.

Test [1] addresses SlMADS-RIN (tomato) (UniProt Q8S4L4). Briefly: two-hybrid; … GAL4 Two-Hybrid System III (Clontech); prey pGADT7-SlCMB1 in Y187 mated with baits in pGBKT7 in Y2HGold; diploids selected on DDO, then growth on QDO and blue colour on QDO/X (X-a-Gal); 30 °C, 3-5 d.
Test [2] has as its target SlMADS1 (tomato) (UniProt Q7Y040). The description is as above.

As to SlCMB1 (from UniProt K4BND8 1-238), the binding entry in test [1] and in test [2] was “binds” each time.
